Reference: the supplement of paper PMC12823440, “Inhibitors supercharge kinase turnover through native proteolytic circuits” (Nature, 2025)
The list shows a part of the results. The calls rarely recur for the same compound in another form.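 In K562 cells expressing nanoluciferase-fused kinases, luminescence was recorded at 4 h intervals between 2 and 18 h, normalized as percent of control with DMSO at 100% and a positive control at 0%. A significant (2 sigma) signal drop marks a time point as decreased. The authors' rule for a hit is not shown and takes in more than the number of time points.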

Protein sequences, listed by entry. Tags and fused reporters are not part of them. Lines headed by an entry give the natural chain unless they say otherwise; changes in a name come on top.
UniProt P28482, whole entry: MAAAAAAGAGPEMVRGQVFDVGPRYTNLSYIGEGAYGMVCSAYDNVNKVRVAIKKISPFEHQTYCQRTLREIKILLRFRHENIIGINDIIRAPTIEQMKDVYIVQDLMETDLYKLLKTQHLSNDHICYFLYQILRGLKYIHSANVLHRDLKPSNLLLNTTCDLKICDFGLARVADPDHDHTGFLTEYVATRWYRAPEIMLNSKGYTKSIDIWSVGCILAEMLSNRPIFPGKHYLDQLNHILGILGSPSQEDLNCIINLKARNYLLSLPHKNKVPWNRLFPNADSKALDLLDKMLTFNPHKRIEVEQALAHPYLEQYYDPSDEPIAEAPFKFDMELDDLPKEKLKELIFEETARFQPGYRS
UniProt P31152, whole entry: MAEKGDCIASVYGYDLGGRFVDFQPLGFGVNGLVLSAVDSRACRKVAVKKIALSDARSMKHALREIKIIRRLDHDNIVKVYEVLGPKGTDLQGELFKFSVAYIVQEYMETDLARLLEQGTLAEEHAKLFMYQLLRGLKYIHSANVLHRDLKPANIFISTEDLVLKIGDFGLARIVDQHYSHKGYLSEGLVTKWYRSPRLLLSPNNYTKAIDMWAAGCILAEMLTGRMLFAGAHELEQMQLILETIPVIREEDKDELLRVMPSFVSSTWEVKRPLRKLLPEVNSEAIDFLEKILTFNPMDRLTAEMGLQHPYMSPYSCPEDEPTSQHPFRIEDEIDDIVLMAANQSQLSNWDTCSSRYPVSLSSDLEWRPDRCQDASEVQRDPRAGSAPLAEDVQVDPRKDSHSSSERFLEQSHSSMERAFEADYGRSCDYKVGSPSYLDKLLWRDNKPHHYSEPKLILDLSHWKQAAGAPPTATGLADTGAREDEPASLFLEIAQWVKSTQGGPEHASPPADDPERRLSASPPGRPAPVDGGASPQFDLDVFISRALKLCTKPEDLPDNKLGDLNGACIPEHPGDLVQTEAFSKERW
UniProt P49137, whole entry, looked up: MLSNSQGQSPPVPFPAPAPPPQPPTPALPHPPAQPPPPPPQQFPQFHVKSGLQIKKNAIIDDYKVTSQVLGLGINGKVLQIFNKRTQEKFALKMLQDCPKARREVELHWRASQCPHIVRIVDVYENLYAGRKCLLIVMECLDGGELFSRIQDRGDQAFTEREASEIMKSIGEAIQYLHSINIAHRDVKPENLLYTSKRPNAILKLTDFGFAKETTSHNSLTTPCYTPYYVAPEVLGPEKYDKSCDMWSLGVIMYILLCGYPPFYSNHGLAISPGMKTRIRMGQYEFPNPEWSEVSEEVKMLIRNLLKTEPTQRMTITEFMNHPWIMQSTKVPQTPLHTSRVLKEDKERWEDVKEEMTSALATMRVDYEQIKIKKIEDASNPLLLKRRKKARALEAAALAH
UniProt Q9BUB5: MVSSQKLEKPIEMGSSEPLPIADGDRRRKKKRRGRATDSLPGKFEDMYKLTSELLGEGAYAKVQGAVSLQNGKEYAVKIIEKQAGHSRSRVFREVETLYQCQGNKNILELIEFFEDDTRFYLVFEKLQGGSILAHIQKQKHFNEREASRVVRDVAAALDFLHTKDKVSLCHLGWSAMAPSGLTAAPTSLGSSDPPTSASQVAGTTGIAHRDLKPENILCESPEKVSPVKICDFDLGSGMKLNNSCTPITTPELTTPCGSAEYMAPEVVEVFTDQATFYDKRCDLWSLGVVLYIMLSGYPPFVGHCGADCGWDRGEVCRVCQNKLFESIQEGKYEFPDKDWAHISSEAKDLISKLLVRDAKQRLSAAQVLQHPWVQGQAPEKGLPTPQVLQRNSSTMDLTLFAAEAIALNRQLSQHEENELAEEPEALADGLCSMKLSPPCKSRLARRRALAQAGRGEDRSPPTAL
UniProt Q16620, whole entry, looked up: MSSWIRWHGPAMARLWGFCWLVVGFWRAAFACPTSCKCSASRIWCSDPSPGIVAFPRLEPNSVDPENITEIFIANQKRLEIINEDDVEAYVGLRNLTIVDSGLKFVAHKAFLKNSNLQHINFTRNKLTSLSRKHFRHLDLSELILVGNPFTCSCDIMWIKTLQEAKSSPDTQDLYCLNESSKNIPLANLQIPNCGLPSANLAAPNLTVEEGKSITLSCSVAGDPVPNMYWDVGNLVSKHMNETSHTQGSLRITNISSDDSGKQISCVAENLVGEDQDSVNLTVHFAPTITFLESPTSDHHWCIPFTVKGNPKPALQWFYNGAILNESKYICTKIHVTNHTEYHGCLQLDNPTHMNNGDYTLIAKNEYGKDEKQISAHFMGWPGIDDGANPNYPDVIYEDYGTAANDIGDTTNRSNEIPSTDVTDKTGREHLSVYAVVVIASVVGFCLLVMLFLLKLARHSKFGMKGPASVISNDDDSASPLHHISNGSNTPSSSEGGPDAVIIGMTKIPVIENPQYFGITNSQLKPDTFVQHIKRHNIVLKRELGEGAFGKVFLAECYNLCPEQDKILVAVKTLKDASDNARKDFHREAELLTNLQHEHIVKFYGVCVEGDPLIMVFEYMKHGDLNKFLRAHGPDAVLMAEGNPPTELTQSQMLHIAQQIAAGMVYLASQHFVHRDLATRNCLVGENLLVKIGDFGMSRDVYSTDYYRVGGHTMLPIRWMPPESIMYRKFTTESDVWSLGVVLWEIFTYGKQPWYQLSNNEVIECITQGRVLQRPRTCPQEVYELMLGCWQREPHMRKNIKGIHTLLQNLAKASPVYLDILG
UniProt Q16288, whole entry, looked up: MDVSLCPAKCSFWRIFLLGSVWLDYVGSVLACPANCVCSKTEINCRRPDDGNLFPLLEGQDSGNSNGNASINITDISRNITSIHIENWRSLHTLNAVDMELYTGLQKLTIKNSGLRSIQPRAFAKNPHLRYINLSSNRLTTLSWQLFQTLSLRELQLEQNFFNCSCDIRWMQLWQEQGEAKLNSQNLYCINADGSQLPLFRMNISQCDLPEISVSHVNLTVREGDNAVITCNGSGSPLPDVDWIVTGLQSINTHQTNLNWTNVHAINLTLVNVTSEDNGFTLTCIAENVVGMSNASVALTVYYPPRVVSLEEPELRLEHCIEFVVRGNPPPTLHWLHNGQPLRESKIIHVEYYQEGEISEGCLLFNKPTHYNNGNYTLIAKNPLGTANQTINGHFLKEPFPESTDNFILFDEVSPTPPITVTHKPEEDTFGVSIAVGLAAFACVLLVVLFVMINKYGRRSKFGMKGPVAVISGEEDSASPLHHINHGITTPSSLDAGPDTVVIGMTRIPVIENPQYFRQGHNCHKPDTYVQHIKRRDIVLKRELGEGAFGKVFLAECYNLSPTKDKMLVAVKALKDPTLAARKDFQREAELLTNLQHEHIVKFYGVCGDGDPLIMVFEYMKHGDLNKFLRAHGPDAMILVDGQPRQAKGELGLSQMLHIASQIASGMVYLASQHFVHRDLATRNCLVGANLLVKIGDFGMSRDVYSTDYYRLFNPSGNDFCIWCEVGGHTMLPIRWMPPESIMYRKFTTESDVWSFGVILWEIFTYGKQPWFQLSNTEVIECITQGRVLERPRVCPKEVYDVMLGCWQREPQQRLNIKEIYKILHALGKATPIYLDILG
UniProt O96013: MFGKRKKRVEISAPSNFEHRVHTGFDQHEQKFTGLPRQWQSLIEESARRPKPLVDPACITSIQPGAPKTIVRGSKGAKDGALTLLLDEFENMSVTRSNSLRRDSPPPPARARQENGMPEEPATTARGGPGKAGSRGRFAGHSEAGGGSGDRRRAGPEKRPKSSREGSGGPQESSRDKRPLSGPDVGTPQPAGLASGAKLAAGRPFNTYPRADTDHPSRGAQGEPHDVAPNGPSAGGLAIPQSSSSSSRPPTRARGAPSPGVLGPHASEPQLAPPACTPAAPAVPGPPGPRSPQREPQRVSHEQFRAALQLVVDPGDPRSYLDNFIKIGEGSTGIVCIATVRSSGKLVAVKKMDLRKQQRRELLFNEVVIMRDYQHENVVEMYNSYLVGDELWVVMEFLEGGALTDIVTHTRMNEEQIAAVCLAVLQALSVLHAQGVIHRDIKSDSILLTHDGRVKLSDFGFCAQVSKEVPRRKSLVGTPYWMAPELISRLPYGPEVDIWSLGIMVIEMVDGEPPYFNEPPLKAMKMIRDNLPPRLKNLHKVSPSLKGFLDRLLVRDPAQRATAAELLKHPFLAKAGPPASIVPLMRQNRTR
UniProt Q96KB5: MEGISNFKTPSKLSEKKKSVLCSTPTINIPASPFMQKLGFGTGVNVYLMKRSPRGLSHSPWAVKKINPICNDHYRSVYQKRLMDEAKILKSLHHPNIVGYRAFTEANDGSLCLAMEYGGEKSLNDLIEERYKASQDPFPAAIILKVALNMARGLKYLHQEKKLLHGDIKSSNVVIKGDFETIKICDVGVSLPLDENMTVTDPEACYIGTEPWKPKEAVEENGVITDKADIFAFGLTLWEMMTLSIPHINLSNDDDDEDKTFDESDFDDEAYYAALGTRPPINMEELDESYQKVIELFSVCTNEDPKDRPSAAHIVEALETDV
UniProt P09619, whole entry: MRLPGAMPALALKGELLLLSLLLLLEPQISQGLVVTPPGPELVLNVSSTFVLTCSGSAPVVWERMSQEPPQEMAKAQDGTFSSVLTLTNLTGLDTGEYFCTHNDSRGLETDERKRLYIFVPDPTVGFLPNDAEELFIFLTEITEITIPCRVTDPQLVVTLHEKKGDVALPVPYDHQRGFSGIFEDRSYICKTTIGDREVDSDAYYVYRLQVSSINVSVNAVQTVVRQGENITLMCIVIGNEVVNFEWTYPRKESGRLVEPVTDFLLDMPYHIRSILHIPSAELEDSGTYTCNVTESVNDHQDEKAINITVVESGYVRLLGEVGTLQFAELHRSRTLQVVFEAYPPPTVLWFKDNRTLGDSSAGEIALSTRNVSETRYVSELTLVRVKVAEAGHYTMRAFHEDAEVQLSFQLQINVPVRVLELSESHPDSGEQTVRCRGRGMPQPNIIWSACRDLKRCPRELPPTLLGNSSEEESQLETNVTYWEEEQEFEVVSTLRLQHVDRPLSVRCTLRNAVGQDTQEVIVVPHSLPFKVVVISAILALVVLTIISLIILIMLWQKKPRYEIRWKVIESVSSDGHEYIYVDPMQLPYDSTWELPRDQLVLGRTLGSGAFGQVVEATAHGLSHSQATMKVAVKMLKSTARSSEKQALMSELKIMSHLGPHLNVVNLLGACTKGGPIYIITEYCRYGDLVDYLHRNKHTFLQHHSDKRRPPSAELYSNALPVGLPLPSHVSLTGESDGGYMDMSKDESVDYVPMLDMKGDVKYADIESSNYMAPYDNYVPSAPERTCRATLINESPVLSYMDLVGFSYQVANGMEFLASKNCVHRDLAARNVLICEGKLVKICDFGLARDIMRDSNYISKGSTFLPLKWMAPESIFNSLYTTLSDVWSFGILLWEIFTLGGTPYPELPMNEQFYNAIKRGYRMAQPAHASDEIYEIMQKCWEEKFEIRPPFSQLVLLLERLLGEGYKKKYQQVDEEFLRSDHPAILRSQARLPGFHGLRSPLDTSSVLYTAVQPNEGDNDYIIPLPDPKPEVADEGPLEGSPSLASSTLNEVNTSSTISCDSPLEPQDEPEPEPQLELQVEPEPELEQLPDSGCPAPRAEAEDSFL
UniProt Q15118, whole entry, looked up: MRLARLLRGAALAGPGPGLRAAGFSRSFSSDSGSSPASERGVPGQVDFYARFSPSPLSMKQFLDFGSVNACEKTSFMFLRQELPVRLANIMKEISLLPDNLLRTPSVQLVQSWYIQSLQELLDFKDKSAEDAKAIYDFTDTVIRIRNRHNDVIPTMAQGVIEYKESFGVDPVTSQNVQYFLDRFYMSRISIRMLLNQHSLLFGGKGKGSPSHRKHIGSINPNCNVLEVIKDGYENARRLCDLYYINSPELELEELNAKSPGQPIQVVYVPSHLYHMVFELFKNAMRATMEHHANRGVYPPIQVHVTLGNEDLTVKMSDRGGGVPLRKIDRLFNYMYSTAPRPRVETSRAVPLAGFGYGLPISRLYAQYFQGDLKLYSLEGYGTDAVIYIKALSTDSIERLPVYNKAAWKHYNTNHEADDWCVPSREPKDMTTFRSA

Columns and labels:
Test in all cases: kinase-Nluc reporter destabilization hit call (1 = scored as downregulated) (binary); higher = compound decreases kinase abundance
Settings in all cases: K562; 2-18 h
[1] = target: MAPK1 (UniProt P28482)
[2] = target: MAPK4 (UniProt P31152)
[3] = target: MAPKAPK2 (UniProt P49137)
[4] = target: MKNK1 (UniProt Q9BUB5)
[5] = target: NTRK2 (UniProt Q16620)
[6] = target: NTRK3 (UniProt Q16288)
[7] = target: PAK4 (UniProt O96013)
[8] = target: PBK (UniProt Q96KB5)
[9] = target: PDGFRB (UniProt P09619)
[10] = target: PDK1 (UniProt Q15118)

Measured: kinase-Nluc reporter destabilization hit call

Nc1ccc(-c2nc3ccc(-c4nc5ccc(N)cc5[nH]4)cc3[nH]2)cc1 (10 µM)
inactive: [1] 0 | [2] 0 | [3] 0 | [4] 0 | [5] 0 | [6] 0 | [7] 0 | [8] 0 | [9] 0 | [10] 0

COc1c(O)cc(O)c2c(=O)cc(-c3ccccc3)oc12 [Wogonin] (10 µM)
inactive: [1] 0 | [2] 0 | [3] 0 | [4] 0 | [5] 0 | [6] 0 | [7] 0 | [8] 0 | [9] 0 | [10] 0

Cn1c(N2CCO[C@@H](c3ccc(F)cc3)C2)nc(-c2ccncn2)cc1=O (10 µM)
inactive: [1] 0 | [2] 0 | [3] 0 | [4] 0 | [5] 0 | [6] 0 | [7] 0 | [8] 0 | [9] 0 | [10] 0

S=C(NCc1ccc2c(c1)OCO2)N1CCN(c2ncnc3c2oc2ccccc23)CC1 [Amuvatinib] (2.5 µM)
inactive: [1] 0 | [2] 0 | [3] 0 | [4] 0 | [5] 0 | [6] 0 | [7] 0 | [8] 0 | [9] 0 | [10] 0

CCn1c(N)c(C(=O)NC)c(=O)c2ccc(C#CC(C)(O)COC)nc21 (stereo not given) (10 µM)
inactive: [1] 0 | [2] 0 | [3] 0 | [4] 0 | [5] 0 | [6] 0 | [7] 0 | [8] 0 | [9] 0 | [10] 0

CC(C)c1cc2c(c(O)c1O)[C@@]13CCCC(C)(C)[C@@H]1C[C@@H]2OC3=O [Carnosol] (2.5 µM)
inactive: [1] 0 | [2] 0 | [3] 0 | [4] 0 | [5] 0 | [6] 0 | [7] 0 | [8] 0 | [9] 0 | [10] 0

Reprinted from above (2 entries):
Cn1c(N2CCO[C@@H](c3ccc(F)cc3)C2)nc(-c2ccncn2)cc1=O (10 µM)
inactive: [1] 0 | [2] 0 | [3] 0 | [4] 0 | [5] 0 | [6] 0 | [7] 0 | [8] 0 | [9] 0 | [10] 0

S=C(NCc1ccc2c(c1)OCO2)N1CCN(c2ncnc3c2oc2ccccc23)CC1 [Amuvatinib] (2.5 µM)
inactive: [1] 0 | [2] 0 | [3] 0 | [4] 0 | [5] 0 | [6] 0 | [7] 0 | [8] 0 | [9] 0 | [10] 0

(continued)

Nc1ccc(-c2cccc(C(=O)Nc3cnc4nc(N5CCOCC5)oc4c3)n2)cn1 (10 µM)
inactive: [1] 0 | [2] 0 | [3] 0 | [4] 0 | [5] 0 | [6] 0 | [7] 0 | [8] 0 | [9] 0 | [10] 0

Cc1ccc(NC(=O)N2CCN(c3nc(N)nc4sc(-c5cccnc5)nc34)CC2)cc1 [PI4KIII beta inhibitor 3] (10 µM)
inactive: [1] 0 | [2] 0 | [3] 0 | [4] 0 | [5] 0 | [6] 0 | [7] 0 | [8] 0 | [9] 0 | [10] 0

Nc1nccc(Oc2ccc3c(C(=O)Nc4cccc(C(F)(F)F)c4)cccc3c2)n1 (10 µM)
inactive: [1] 0 | [2] 0 | [3] 0 | [4] 0 | [5] 0 | [6] 0 | [7] 0 | [8] 0 | [9] 0 | [10] 0

CC(C)n1c(CO)nc2c(F)cc(-c3nc(Nc4ccc(CN5CCNCC5)cn4)ncc3F)cc21 (10 µM)
inactive: [1] 0 | [2] 0 | [3] 0 | [4] 0 | [5] 0 | [6] 0 | [7] 0 | [8] 0 | [9] 0 | [10] 0

Cc1cc2c(F)c(Oc3ncnn4cc(OC[C@@H](C)OC(=O)[C@H](C)N)c(C)c34)ccc2[nH]1 [Brivanib (alaninate)] (10 µM)
inactive: [1] 0 | [2] 0 | [3] 0 | [4] 0 | [5] 0 | [6] 0 | [7] 0 | [8] 0 | [9] 0 | [10] 0

N#Cc1cnc(Nc2cc(NC[C@H]3CNCCO3)c(C(F)(F)F)cn2)cn1 (10 µM)
inactive: [1] 0 | [2] 0 | [3] 0 | [4] 0 | [5] 0 | [6] 0 | [7] 0 | [8] 0 | [9] 0 | [10] 0

CCc1cc(Nc2nccc(-c3c(-c4ccc(OC)c(C(=O)Nc5c(F)cccc5F)c4)nc4ccccn34)n2)c(OC)cc1N1CCC(N2CCN(S(C)(=O)=O)CC2)CC1 (2.5 µM)
inactive: [1] 0 | [2] 0 | [3] 0 | [4] 0 | [5] 0 | [6] 0 | [7] 0 | [8] 0 | [9] 0 | [10] 0

N#Cc1cc(N2CCC(C(=O)N3N=CC[C@H]3c3cc(F)cc(F)c3)CC2)ncn1 (10 µM)
inactive: [1] 0 | [2] 0 | [3] 0 | [4] 0 | [5] 0 | [6] 0 | [7] 0 | [8] 0 | [9] 0 | [10] 0

Cc1nc(NC(=O)N2CCC[C@H]2C(N)=O)sc1-c1ccnc(C(C)(C)C(F)(F)F)c1 [Alpelisib] (2.5 µM)
inactive: [1] 0 | [2] 0 | [3] 0 | [4] 0 | [5] 0 | [6] 0 | [7] 0 | [8] 0 | [9] 0 | [10] 0

O=C(Nc1ccc(F)cc1F)C(NC(=S)Nc1cc(C(F)(F)F)cc(C(F)(F)F)c1)c1ccccc1 (racemic) (2.5 µM)
inactive: [1] 0 | [2] 0 | [3] 0 | [4] 0 | [5] 0 | [6] 0 | [7] 0 | [8] 0 | [9] 0 | [10] 0

CC(C)=CCC[C@](C)(O[C@@H]1O[C@H](CO[C@@H]2O[C@H](CO)[C@@H](O)[C@H](O)[C@H]2O)[C@@H](O)[C@H](O)[C@H]1O)[C@H]1CC[C@]2(C)[C@@H]1[C@H](O)C[C@@H]1[C@@]3(C)CC[C@H](O[C@@H]4O[C@H](CO)[C@@H](O)[C@H](O)[C@H]4O[C@@H]4O[C@H](CO)[C@@H](O)[C@H](O)[C@H]4O)C(C)(C)[C@@H]3CC[C@]12C [Ginsenoside Rb1] (10 µM)
inactive: [1] 0 | [2] 0 | [3] 0 | [4] 0 | [5] 0 | [6] 0 | [7] 0 | [8] 0 | [9] 0 | [10] 0

CC(=O)O/N=C1/C(c2c(O)[nH]c3cc(Br)ccc23)=Nc2ccccc21 [BIO-acetoxime] (10 µM)
inactive: [1] 0 | [2] 0 | [3] 0 | [4] 0 | [5] 0 | [6] 0 | [7] 0 | [8] 0 | [9] 0 | [10] 0

COc1ccc2nc3ccc(OC)cc3c(SCCCN)c2c1 (10 µM)
inactive: [1] 0 | [2] 0 | [3] 0 | [4] 0 | [5] 0 | [6] 0 | [7] 0 | [8] 0 | [9] 0 | [10] 0

CCCCNc1ncc(C(=O)NCc2ccc(-n3ccnc3)cc2)c(NC2CCC(O)CC2)n1 (stereo not given) (10 µM)
inactive: [1] 0 | [2] 0 | [3] 0 | [4] 0 | [5] 0 | [6] 0 | [7] 0 | [8] 0 | [9] 0 | [10] 0

Cc1nc(Nc2cnn(C3CCNCC3)c2)nc2c1N(C)C(=O)c1cc3ccccc3cc1N2C (2.5 µM)
inactive: [1] 0 | [2] 0 | [3] 0 | [4] 0 | [5] 0 | [6] 0 | [7] 0 | [8] 0 | [9] 0 | [10] 0

Cc1ccc2c(NS(=O)(=O)c3ccccc3Cl)cccc2c1Oc1ncccc1-c1ccnc(N[C@H]2CCCNC2)n1 (2.5 µM)
inactive: [1] 0 | [2] 0 | [3] 0 | [4] 0 | [5] 0 | [6] 0 | [7] 0 | [8] 0 | [9] 0 | [10] 0

COc1cc(N2CCC(O)CC2)ccc1Nc1nc(Nc2ccccc2S(=O)(=O)C(C)C)c2[nH]cnc2n1 (10 µM)
inactive: [1] 0 | [2] 0 | [3] 0 | [4] 0 | [5] 0 | [6] 0 | [7] 0 | [8] 0 | [9] 0 | [10] 0

CS(=O)(=O)c1ccc([C@@H](CC2CCCC2)C(=O)Nc2nccs2)cc1 (10 µM)
inactive: [1] 0 | [2] 0 | [3] 0 | [4] 0 | [5] 0 | [6] 0 | [7] 0 | [8] 0 | [9] 0 | [10] 0

O=C(NC[C@H](O)CO)c1ccncc1Nc1ccc(I)cc1F [Pimasertib] (10 µM)
inactive: [1] 0 | [2] 0 | [3] 0 | [4] 0 | [5] 0 | [6] 0 | [7] 0 | [8] 0 | [9] 0 | [10] 0

O=C1Cc2ccccc2N1 [Oxindole] (10 µM)
inactive: [1] 0 | [2] 0 | [3] 0 | [4] 0 | [5] 0 | [6] 0 | [7] 0 | [8] 0 | [9] 0 | [10] 0

C[C@H](Nc1cc2c(-c3ccc4c(c3)OCO4)noc2cn1)c1ccccc1 (10 µM)
inactive: [1] 0 | [2] 0 | [3] 0 | [4] 0 | [5] 0 | [6] 0 | [7] 0 | [8] 0 | [9] 0 | [10] 0

O=c1cc(-c2ccc(O[C@@H]3O[C@H](CO)[C@@H](O)[C@H](O)[C@H]3O)cc2)oc2cc(O)c([C@@H]3O[C@H](CO)[C@@H](O)[C@H](O)[C@H]3O[C@@H]3OC[C@H](O)[C@H](O)[C@H]3O)c(O)c12 [Vaccarin] (10 µM)
inactive: [1] 0 | [2] 0 | [3] 0 | [4] 0 | [5] 0 | [6] 0 | [7] 0 | [8] 0 | [9] 0 | [10] 0

NC(=O)c1cnc(N[C@@H]2CCCC[C@@H]2N)nc1Nc1cccc(-n2nccn2)c1 (2.5 µM)
inactive: [1] 0 | [2] 0 | [3] 0 | [4] 0 | [5] 0 | [6] 0 | [7] 0 | [8] 0 | [9] 0 | [10] 0
